Experimental data published in patent US20250312407A1 (AJINOMOTO CO., INC., priority 2019, published 2025).

Assays:
Settings in all cases: whole synthesis
[1] = general procedure: Fmoc solid-phase peptide synthesis; Fmoc-Leu-Wang resin
[2] = general procedure: Fmoc solid-phase peptide synthesis; Fmoc-Gly-Wang resin
[3] = general procedure: Fmoc solid-phase peptide synthesis; Fmoc-Lys (Boc)-Wang resin

Sequence | final purity (method not given) [1] [%] | final purity (method not given) [2] [%] | other results
IVTQTMKGL (Designed peptide) | 99.4 | – | –
VTQTMKGL (Designed peptide) | 99.5 | – | –
LIVTQTMKGL (Designed peptide) | 98.3 | – | –
IVTQTMKG (Designed peptide) | – | 99.3 | –
LIVTQTMKG (Designed peptide) | – | 99.3 | –
LIVTQTMK (Designed peptide) | – | – | final purity (method not given) [3]: 99.0%

End groups of sequences in plain letters are not given here.
